# PubChem BioAssay AID1347075 (National Center for Advancing Translational Sciences (NCATS), 2019)
# Among all 400,000 compounds or so, about 5,500 (1.4%) were called active. Inconclusive means that the source gave no clear call. Such entries were picked first, then a sample of the others. Calls follow the shape of the dose curve; as a rule, active = well fitted cell-killing curve with a large enough effect; inconclusive = small, poorly fitted or top-dose-only effect, or effect the other way; inactive = flat fitted curve, though single readings scatter. A potency beside an inconclusive call is a rough fit, not a confirmed value. A structure can be active in one record and inactive in another.
# Test: qHTS assay for MDR1-selective chemotherapeutics: Primary screen using the parental adenocarcinoma cell KB-3-1; also: nearly all actives have a fitted effect of over 60% in size
# Conditions: KB-3-1 viability, CellTiter-Glo ATP luminescence, 72 h; activity change, negative = cytotoxic: at 46.1 µM (top of the series)
# How it was run: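 Screening of KB-3-1 cells (DMEM, 10% FBS, phenol-red free) ran from lowest to highest compound concentration; after 72 h at 37 °C viability was read luminescently and curves fitted.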
# % is scaled to controls: 0 for no effect and ±100 for the full control effect; potency is read from the fitted curve at half-maximal effect.
Structure (SMILES),Potency,"activity change, negative = cytotoxic"
CCCCCCCCC(=O)NNC(=O)c1c(O)c2ccccc2n(CCC)c1=O,"inconclusive: 25.9 µM [cytotoxic, single point]",–
CCOc1cc(C(=O)NCCCn2ccnc2)cc(OCC)c1OCC,–,inactive: 1.14%
O=C(N/N=C/c1ccc2c(c1)OCO2)c1cccc2ccccc12,"inconclusive: 16.4 µM [cytotoxic, single point]",–
Cc1ccccc1N=C(c1ccccc1)C1C(=O)c2ccccc2C1=O,"inconclusive: 20.6 µM [cytotoxic, single point]",–
C[C@H](NC(c1ccc(F)cc1)c1ccc2cccnc2c1O)c1ccccc1 (stereo not given in full),"inconclusive: 20.6 µM [cytotoxic, partial curve, poor fit]",–
c1ccc(C[n+]2cccc(-c3ccccc3)c2)cc1,"inconclusive: 23.1 µM [cytotoxic, single point]",–
C=CS(=O)(=O)N(Cc1ccc(Cl)c(Cl)c1)C[C@@H](O)CO,"inconclusive: 20.6 µM [cytotoxic, single point]",–
CCOc1ccc(-n2c(=O)c3c(C)c(C)sc3n(CC(=O)Nc3ccc(CC)cc3)c2=O)cc1,–,inactive: 10.2%
Cc1ccc(CN2C(=O)C(=O)c3cc(Br)cc(C)c32)cc1,"inconclusive: 29.1 µM [cytotoxic, single point]",–
O=C(CN1CCN(Cc2ccc3c(c2)OCO3)CC1)N1CCc2[nH]c3ccc(F)cc3c2C1,"inconclusive: 18.4 µM [cytotoxic, single point]",–
CCN(C(=O)c1cc2c(=O)n(CC)c3ccccc3c2s1)c1cccc(C(F)(F)F)c1,–,inactive: -4.92%
O=C(Cc1ccc(Br)cc1)NCc1ccccc1,active: 5.8 µM,–
Cc1cccc(CN2CCN(C(=O)CCl)CC2)c1,"inconclusive: 20.6 µM [cytotoxic, single point]",–
COc1ccc(S(=O)(=O)Nc2cc3c(C(C)=O)c(C)oc3c3ccccc23)cc1,active: 2.06 µM,–
CC(C)=CCc1c(O)c(CC=C(C)C)c2occ(-c3ccc(O)cc3)c(=O)c2c1O,"inconclusive: 29.1 µM [cytotoxic, single point]",–
COc1ccc(NC(=O)c2ccco2)cc1NC(=O)c1ccc(Br)o1,"inconclusive: 2.91 µM [cytotoxic, partial curve, poor fit]",–
CCN(CCC#N)c1ccc(/C=C/c2ccnc3ccccc23)cc1,"inconclusive: 29.1 µM [cytotoxic, single point]",–
Nc1ccc(C(=O)n2c3ccccc3c3ccccc32)cc1,active: 2.31 µM,–
CCOC(=O)c1nn(-c2ccccc2)c2nc(-c3ccc(OC)cc3)c(C#N)c(=O)n12,–,inconclusive: 33.8%
Cc1ccc(-c2cnc(C(O)c3ccc(Cl)c(F)c3)[nH]2)cc1 (stereo not given),–,inactive: 0%
O=C(NCc1cccs1)c1ccc(CSc2nc3cccnc3n2Cc2ccc(F)cc2)cc1,"inconclusive: 20.6 µM [cytotoxic, single point]",–
CCOC(=O)C[C@H]1c2ccccc2S(=O)(=O)N1Cc1cc(OC)c(OC)c(OC)c1,inactive,–
CCOc1ccc(-c2nnc(NC(=O)Cc3cc(OC)c(OC)c(OC)c3)o2)cc1,"inconclusive: 29.1 µM [rising, single point]",–
CNC(=S)NCCc1ccccc1,–,inactive: 0.703%

# A second format for some results above:
Structure (SMILES) | Potency | activity change, negative = cytotoxic
C[C@H](NC(c1ccc(F)cc1)c1ccc2cccnc2c1O)c1ccccc1 (stereo not given in full) | inconclusive: 20.6 µM [cytotoxic, partial curve, poor fit] | –
c1ccc(C[n+]2cccc(-c3ccccc3)c2)cc1 | inconclusive: 23.1 µM [cytotoxic, single point] | –
C=CS(=O)(=O)N(Cc1ccc(Cl)c(Cl)c1)C[C@@H](O)CO | inconclusive: 20.6 µM [cytotoxic, single point] | –
CCOc1ccc(-n2c(=O)c3c(C)c(C)sc3n(CC(=O)Nc3ccc(CC)cc3)c2=O)cc1 | – | inactive: 10.2%
Cc1ccc(CN2C(=O)C(=O)c3cc(Br)cc(C)c32)cc1 | inconclusive: 29.1 µM [cytotoxic, single point] | –
O=C(CN1CCN(Cc2ccc3c(c2)OCO3)CC1)N1CCc2[nH]c3ccc(F)cc3c2C1 | inconclusive: 18.4 µM [cytotoxic, single point] | –
CCN(C(=O)c1cc2c(=O)n(CC)c3ccccc3c2s1)c1cccc(C(F)(F)F)c1 | – | inactive: -4.92%
O=C(Cc1ccc(Br)cc1)NCc1ccccc1 | active: 5.8 µM | –
Cc1cccc(CN2CCN(C(=O)CCl)CC2)c1 | inconclusive: 20.6 µM [cytotoxic, single point] | –
COc1ccc(S(=O)(=O)Nc2cc3c(C(C)=O)c(C)oc3c3ccccc23)cc1 | active: 2.06 µM | –
CC(C)=CCc1c(O)c(CC=C(C)C)c2occ(-c3ccc(O)cc3)c(=O)c2c1O | inconclusive: 29.1 µM [cytotoxic, single point] | –
COc1ccc(NC(=O)c2ccco2)cc1NC(=O)c1ccc(Br)o1 | inconclusive: 2.91 µM [cytotoxic, partial curve, poor fit] | –
CCN(CCC#N)c1ccc(/C=C/c2ccnc3ccccc23)cc1 | inconclusive: 29.1 µM [cytotoxic, single point] | –
Nc1ccc(C(=O)n2c3ccccc3c3ccccc32)cc1 | active: 2.31 µM | –
CCOC(=O)c1nn(-c2ccccc2)c2nc(-c3ccc(OC)cc3)c(C#N)c(=O)n12 | – | inconclusive: 33.8%
Cc1ccc(-c2cnc(C(O)c3ccc(Cl)c(F)c3)[nH]2)cc1 (stereo not given) | – | inactive: 0%
O=C(NCc1cccs1)c1ccc(CSc2nc3cccnc3n2Cc2ccc(F)cc2)cc1 | inconclusive: 20.6 µM [cytotoxic, single point] | –
CCOC(=O)C[C@H]1c2ccccc2S(=O)(=O)N1Cc1cc(OC)c(OC)c(OC)c1 | inactive | –

# (list continues)

Structure (SMILES),Potency,"activity change, negative = cytotoxic"
Cc1ccc(NC(=O)CCSc2nnc(-c3ccco3)o2)cc1,"inconclusive: 32.6 µM [cytotoxic, single point]",–
CCCNc1nc2c(c(=O)n(C)c(=O)n2C)n1CCC(C)C,"inconclusive: 8.2 µM [cytotoxic, partial curve]",–
Cc1ccccc1OCCNCC(C)O (stereo not given),"inconclusive: 29.1 µM [cytotoxic, single point]",–
Cc1cc(C)cc(NC(=O)C2CCN(C(=O)c3cnn(-c4ccccc4)c3-n3cccc3)CC2)c1,–,inactive: -28.5%
CCc1nnc(NC(=O)C2CCCN2C(=O)Nc2ccc(C)cc2)s1 (stereo not given),–,inactive: 3.06%
COc1ccccc1N1CCN(S(=O)(=O)c2ccc3c(c2)NC(=O)CS3)CC1,"inconclusive: 29.1 µM [cytotoxic, single point]",–
CC(C)(C)[C@@H]1COC(=O)[C@H](Cc2ccc(F)cc2)CC/C=C\C[C@@H](CC(=O)N(CCO)Cc2ccccc2)C(=O)N1,"inconclusive: 4.11 µM [cytotoxic, full curve]",–
Cc1cccc(OCCCC(=O)Nc2nnc(C3CCCO3)s2)c1C (stereo not given),–,inactive: -0.536%
CCOc1nc(NC(=O)NS(=O)(=O)Oc2cccc(Cl)c2)nc(-c2ccccc2)n1,active: 0.0016 µM,–
Cc1nn(-c2ccccc2C(F)(F)F)c(=O)c2noc(C)c12,"inconclusive: 29.1 µM [rising, single point]",–
CCCCC[C@H](C)N1C[C@@H](COCc2ccccc2)Oc2cc(N3CC[C@@H](N(C)C)C3)ccc2S1(=O)=O,"inconclusive: 29.1 µM [cytotoxic, single point]",–
O=C(CC1S/C(=N/N=C/c2cccs2)NC1=O)Nc1ccc(Cl)c(Cl)c1 (stereo not given),"inconclusive: 16.4 µM [cytotoxic, single point]",–
CCOc1ccccc1NC(=S)N1CCCc2ccccc21,"inconclusive: 2.59 µM [rising, full curve]",–
CC(C)c1cccc(C(C)C)c1OC(=O)[C@H]1OC(c2ccc(Br)cc2)=C[C@@H]1c1ccc(Br)cc1,"inconclusive: 29.1 µM [cytotoxic, single point]",–
CCOC(=O)c1ccc(S(=O)(=O)N2CCN(C(=O)C3CSC4(C)CCC(=O)N34)CC2)cc1 (stereo not given),"inconclusive: 0.0058 µM [rising, full curve]",–
Cc1cc(NS(=O)(=O)c2ccc(NC(=O)COc3ccc(Br)cc3)cc2)nc(C)n1,–,inconclusive: 6.18%
CCOC(=O)NC(=O)CSc1nc2ccc(OCC)cc2[nH]1,"inconclusive: 9.2 µM [rising, partial curve, poor fit]",–
Cc1cc(C)c2nc(NCCCNC(=S)NCCCN(C)C)c(C#N)cc2c1,"inconclusive: 18.4 µM [cytotoxic, single point]",–
C(=C\c1nccc2c1[nH]c1ccccc12)/c1ccccc1,"inconclusive: 29.1 µM [cytotoxic, single point]",–
Cc1cccc(NC(=O)c2n[nH]c([N+](=O)[O-])c2Br)c1C,"inconclusive: 25.9 µM [cytotoxic, single point]",–
Cc1[nH]c2ccccc2c1C(O)c1ccncc1 (stereo not given),–,inactive: -6.98%
COc1ccc2oc(C(=O)C3CC3)c(N)c2c1,–,inactive: 3.73%
CCOc1ccc(NS(=O)(=O)c2ccc(C(=O)N3CCN(c4ncccn4)CC3)cc2)cc1,"inconclusive: 25.9 µM [cytotoxic, single point]",–
COc1cccc(-c2nn(-c3ccccc3)cc2C(=O)OCC(=O)Nc2ncc(Cl)cc2Cl)c1,"inconclusive: 5.8 µM [rising, partial curve, poor fit]",–

Structure (SMILES),Potency,"activity change, negative = cytotoxic"
O=C(NCCc1ccc(Cl)cc1)C1CCC(=O)N1Cc1ccc(F)cc1 (stereo not given),–,inactive: 5.71%
COc1ccc2cc1Oc1ccc(cc1)C[C@H]1c3c(cc4c(c3Oc3cc5c(cc3OC)CCN(C)[C@@H]5C2)OCO4)CCN1C,"inconclusive: 29.1 µM [cytotoxic, single point]",–
CCOC(=O)c1c2c([nH]c(=S)c1C#N)CCCC2,inconclusive: 0.0004 µM [cytotoxic],–
COc1ccc(OC(C)C(=O)N(C)Cc2nc(-c3ccc(OC)cc3)no2)cc1 (stereo not given),"inconclusive: 14.6 µM [cytotoxic, partial curve, poor fit]",–
O=C(N/N=C/c1cc(Cl)cc(Cl)c1O)c1ccncc1,"inconclusive: 20.6 µM [cytotoxic, single point]",–
Cn1c(-c2cccc(Br)c2)cnc1NCc1cccc(F)c1,"inconclusive: 18.4 µM [cytotoxic, single point]",–
Cc1ccc2cc(/C=C/C(=O)c3ccco3)c(Cl)nc2c1,–,inactive: -5.3%
CCCCCCCCN1C(=O)[C@H](CC(=O)NCCc2ccccc2OC)C[C@@]2(C(=O)OCC)CCCC=C12,–,inactive: -10.5%
COc1ccccc1C=CC(=O)C=Cc1ccccc1OC,"inconclusive: 16.4 µM [cytotoxic, single point]",–
CCOC(=O)CN1N=C(/C=C/c2ccc(C)cc2)CCC1=O,active: 5.17 µM,–
COCCNC(=S)N/N=C(\C)c1ccc(OC(F)F)cc1,"inconclusive: 29.1 µM [cytotoxic, single point]",–
COc1ccc2c(c1)C(=O)C(=O)N2CC1COc2ccccc2O1 (stereo not given),active: 14.6 µM,–
CN(C)CCNC(=O)c1cccc(-c2cccc3nccn23)c1,–,inconclusive: -0.122%
O=C(CCn1c(=S)[nH]c2ccccc2c1=O)N1CCCCC1,"inconclusive: 18.4 µM [cytotoxic, single point]",–
CN(C)S(=O)(=O)c1ccc(NC(=O)CN2CCN(c3ccccn3)CC2)cc1,"inconclusive: 32.6 µM [cytotoxic, partial curve, poor fit]",–
CCOc1cc(N2CCOCC2)c(OCC)cc1NS(=O)(=O)c1ccc2c(c1)CC(=O)N2,–,inactive: 0.146%
CCOC(=O)/C=C1/SCC(=O)N1CCOc1cccc(Br)c1,–,inconclusive: 35.1%
Cc1ccc(-c2c3c(=O)n(C)c(=O)n(C)c3cn2-n2cnnc2)cc1,"inconclusive: 29.1 µM [cytotoxic, single point]",–
CN(C)CCNc1nc2sc3c(c2c(=O)n1-c1ccccc1)CCCCC3,–,inactive: -15.9%
CCn1c(SCC(=O)Nc2nc(C)cs2)nnc1-c1ccncc1,–,inactive: 10.7%
COC(=O)C1(C(=O)OC)C[C@H](/C=C/c2ccccc2)N(Cc2ccccc2OC)[C@@H]1c1cccs1,"inconclusive: 29.1 µM [cytotoxic, single point]",–
COc1ccccc1CNC(=O)CSc1nc2nc(C)c(Cc3ccccc3C)c(C)n2n1,"inconclusive: 6.51 µM [cytotoxic, partial curve]",–
